Source: patent US4609623A, “Microbiologically produced D-2-hydroxy-4-methylpentanoic acid dehydrogenase, process for its production and its use” (Degussa AG, priority 1983, dated 1986)
For at least one compound, name, drawing or mass did not settle the structure.

Target: T1, D-2-hydroxy-4-methylpentanoic acid dehydrogenase (Lacticaseibacillus paracasei, UniProt P17584)
T1 sequence (P17584 1-333): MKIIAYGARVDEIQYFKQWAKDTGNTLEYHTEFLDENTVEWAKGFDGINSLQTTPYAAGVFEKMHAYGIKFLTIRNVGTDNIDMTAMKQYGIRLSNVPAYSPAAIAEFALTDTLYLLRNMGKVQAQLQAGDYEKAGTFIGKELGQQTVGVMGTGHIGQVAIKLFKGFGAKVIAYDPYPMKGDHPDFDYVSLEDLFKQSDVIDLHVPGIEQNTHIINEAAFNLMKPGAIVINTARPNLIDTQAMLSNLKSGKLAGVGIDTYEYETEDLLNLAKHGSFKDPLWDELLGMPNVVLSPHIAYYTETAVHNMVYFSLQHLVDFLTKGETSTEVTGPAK
Test: Acceptance of pyruvate as substrate
Format: biochemical
Set-up: about 73 kDa by gel filtration (homodimer)

CC(=O)C(=O)O [pyruvate]
Acceptance as a substrate: does not accept
